For orientation: pKd means the Kd on a negative log10 scale, so that one unit is a factor of ten.

Chains of the proteins cited; added tags and fusions are not shown. A line that says so, or that is headed by a name, gives the form on record, which may keep a tag or linker.
VEGF165 reduced with DTT (Homo sapiens), one chain, as listed by the source: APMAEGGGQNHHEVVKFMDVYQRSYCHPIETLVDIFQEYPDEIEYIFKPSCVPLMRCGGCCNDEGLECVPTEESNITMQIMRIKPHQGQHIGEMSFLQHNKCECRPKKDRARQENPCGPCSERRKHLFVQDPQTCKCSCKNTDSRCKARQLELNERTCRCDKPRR

pKd: −log10 of the molar value. For some of these results: Negatives hold for the conditions tested.

The test system of data set [1] is VEGF165 reduced with DTT (Homo sapiens). Nature of the data set: filter binding. The conditions noted are these: 2'-F pyrimidines, 2'-OMe purines except two 2'-OH purines, VEGF165 reduced with DTT, purified recombinant protein, protein details: R&D Systems, Sf21, DTT-reduced before incubation.
Data set [2] concerns VEGF165 (Homo sapiens). In words: activity assay. The conditions noted are these: 2'-F pyrimidines, 2'-OMe/2'-OH purines, 3'-3' dT, Miles assay guinea pig, VEGF isoform not stated, purified recombinant protein, variant of t44OMe.
Data set [3] relates to VEGF165 (Homo sapiens). Nature of the data set: filter binding. The conditions noted are these: 2'-F pyrimidines, 2'-OH purines, 3'-3' dT cap [21 (3'-3' dT cap); 2'-F pyrimidines 2,11,12,18,20]; 37 C; purified recombinant protein; letters built from the parent sequence and the stated change; variant of VP30.22.

Take CGGAAUCAGUGAAUGCUUAUACAUCCG [t44OMe]: the binding result in data set [1] (variant of t44a) was “no binding”.

With “CGGAAUCAGUGAAUGCUUAUACAUCCGT [NX31838-20K PEG]”, in data set [2] (5' 20K mPEG via aminolinker, blocks VEGF vascular leakage down to 100 nM, lost at 30 nM), the “functional effect of the aptamer” value is given as “active”.

For “CGGAAUCAGUGAAUGCUUAUACAUCCGT [NX31838-40K PEG]”, the “functional effect of the aptamer” value in data set [2] (5' 40K mPEG via aminolinker, blocks VEGF vascular leakage down to 100 nM, lost at 30 nM) is “active”.

As for “CGGAAUCAGUGAAUGCUUAUACAUCCGT [NX31838-PL (liposomal)]”, the “functional effect of the aptamer” value in data set [2] (phospholipid (C-18), liposomal, reduced blocking at 100 nM) was “active”.

For GCGAACCGAUGGAAUUUUUGGACGCUCGC [t2OMe], in data set [1] (variant of t2a), the binding result is recorded as “no binding”.

On to GCGGUAGGAAGAAUUGGAAGCGC [t22OMe], for which the binding result in data set [1] (variant of t22c) is “no binding”.

Regarding GUAGGAAGAAUUGGAAGCGCT [t22f], the pKd in data set [3] is less than 7.00.

The record behind these values is patent US6051698.
